The data set in a line: general procedure: solution-phase peptide synthesis. The following applies: for conjugation yield: conjugation step.

In turn, “(4S)-4-({2-[(1R,3R)-1-(acetyloxy)-3-[(2S,3S)—N-hexyl-2-{[(2R)-1-(2-hydroxyethyl)piperidin-2-yl]formamido}-3-methylpentanamido]-4-methylpentyl]-1,3-thiazol-4-yl}formamido)-5-(4-amino-3-fluorophenyl)-2,2-dimethylpentanoic acid (PA-9 aka PA8)” displayed a step yield (coupling step, from 1-9d) of 22% yield from 1-9d. As to “Rac-(R)-4-(2-((1S,3S)-1-acetoxy-3-((2R,3R)—N-hexyl-3-methyl-2-((S)-1-methylpiperidine-2-carboxamido)pentanamido)-4-methylpentyl)thiazole-4-carboxamido)-acid”, the step yield (coupling step) worked out at 25% yield. In the case of “(S)-4-(2-((1R,3R)-3-((2S,3S)-2-((R)-1-(2-((tert-butoxycarbonyl)amino)ethyl)piperidine-2-carboxamido)-N-hexyl-3-methylpentanamido)-1-ethoxy-4-methylpentyl)thiazole-4-carboxamido)-5-(4-hydroxyphenyl)-2,2-dimethylpentanoic acid”, under “coupling step”, the step yield is 80% yield. Consider “(S)-4-(2-((1R,3R)-3-((2S,3S)-2-((R)-1-(2-aminoethyl)piperidine-2-carboxamido)-N-hexyl-3-methylpentanamido)-1-ethoxy-4-methylpentyl)thiazole-4-carboxamido)-5-(4-hydroxyphenyl)-2,2-dimethylpentanoic acid”, for which the step yield is given as 28% yield from 1-9a (coupling step, from 1-9a) and 67% yield (late stage modification step). In turn, “Rac-(R)-4-(2-((1S,3S)-1-acetoxy-3-((2R,3R)—N-hexyl-3-methyl-2-((S)-piperidine-2-carboxamido)pentanamido)-4-methylpentyl)thiazole-4-carboxamido)-5-(4-((carboxymethyl)amino)phenyl)-2,2-dimethylpentanoic acid (PB-6 aka PA17)” yielded a step yield (coupling step, from acid 1-7) of 7% yield from 1-7%. The substance “2-((1R,3R)-3-((2S,3S)-2-((R)-1-(((4-((S)-2-((S)-2-((((9H-fluoren-9-yl)methoxy)carbonyl)amino)-3-methylbutanamido)-5-ureidopentanamido)benzyl)oxy)carbonyl)-2-methylpyrrolidine-2-carboxamido)-N-hexyl-3-methylpentanamido)-1-acetoxy-4-methylpentyl)thiazole-4-carboxylic acid (10-2)” showed a conjugation yield of 29% yield. Still for that read-out and setting: then “(4S)-4-({2-[(1R,3R)-1-(acetyloxy)-3-[(2S,3S)-2-{[(2R)-1-[({4-[(2S)-2-[(2S)-2-[1-(4-{2-azatricyclo[10.4.0.0^4,9]hexadeca-1(12),4(9),5,7,13,15-hexaen-10-yn-2-yl}-4-oxobutanamido)-3,6,9,12-tetraoxapentadecan-15-amido]-3-methylbutanamido]-5-(carbamoylamino)pentanamido]phenyl}methoxy)carbonyl]-2-methylpyrrolidin-2-yl]formamido}-N-hexyl-3-methylpentanamido]-4-methylpentyl]-1,3-thiazol-4-yl}formamido)-5-(4-hydroxyphenyl)-2,2-dimethylpentanoic acid”, with 13% yield.

These data come from US20230414775A1 (priority 2021, published 2023).
